Results as given in article PMC8975741.
These are yes or no findings as the source states them, for the method shown. Binding seen in cells or lysates may run through a third protein. Some results given as binding are weak or reduced against the parent protein; the word gives no strength. For part of these data: Sequences can lack the tags named with a protein.

Protein sequences, listed by entry. Tags and fused reporters are not part of them.
UniProt Q14160: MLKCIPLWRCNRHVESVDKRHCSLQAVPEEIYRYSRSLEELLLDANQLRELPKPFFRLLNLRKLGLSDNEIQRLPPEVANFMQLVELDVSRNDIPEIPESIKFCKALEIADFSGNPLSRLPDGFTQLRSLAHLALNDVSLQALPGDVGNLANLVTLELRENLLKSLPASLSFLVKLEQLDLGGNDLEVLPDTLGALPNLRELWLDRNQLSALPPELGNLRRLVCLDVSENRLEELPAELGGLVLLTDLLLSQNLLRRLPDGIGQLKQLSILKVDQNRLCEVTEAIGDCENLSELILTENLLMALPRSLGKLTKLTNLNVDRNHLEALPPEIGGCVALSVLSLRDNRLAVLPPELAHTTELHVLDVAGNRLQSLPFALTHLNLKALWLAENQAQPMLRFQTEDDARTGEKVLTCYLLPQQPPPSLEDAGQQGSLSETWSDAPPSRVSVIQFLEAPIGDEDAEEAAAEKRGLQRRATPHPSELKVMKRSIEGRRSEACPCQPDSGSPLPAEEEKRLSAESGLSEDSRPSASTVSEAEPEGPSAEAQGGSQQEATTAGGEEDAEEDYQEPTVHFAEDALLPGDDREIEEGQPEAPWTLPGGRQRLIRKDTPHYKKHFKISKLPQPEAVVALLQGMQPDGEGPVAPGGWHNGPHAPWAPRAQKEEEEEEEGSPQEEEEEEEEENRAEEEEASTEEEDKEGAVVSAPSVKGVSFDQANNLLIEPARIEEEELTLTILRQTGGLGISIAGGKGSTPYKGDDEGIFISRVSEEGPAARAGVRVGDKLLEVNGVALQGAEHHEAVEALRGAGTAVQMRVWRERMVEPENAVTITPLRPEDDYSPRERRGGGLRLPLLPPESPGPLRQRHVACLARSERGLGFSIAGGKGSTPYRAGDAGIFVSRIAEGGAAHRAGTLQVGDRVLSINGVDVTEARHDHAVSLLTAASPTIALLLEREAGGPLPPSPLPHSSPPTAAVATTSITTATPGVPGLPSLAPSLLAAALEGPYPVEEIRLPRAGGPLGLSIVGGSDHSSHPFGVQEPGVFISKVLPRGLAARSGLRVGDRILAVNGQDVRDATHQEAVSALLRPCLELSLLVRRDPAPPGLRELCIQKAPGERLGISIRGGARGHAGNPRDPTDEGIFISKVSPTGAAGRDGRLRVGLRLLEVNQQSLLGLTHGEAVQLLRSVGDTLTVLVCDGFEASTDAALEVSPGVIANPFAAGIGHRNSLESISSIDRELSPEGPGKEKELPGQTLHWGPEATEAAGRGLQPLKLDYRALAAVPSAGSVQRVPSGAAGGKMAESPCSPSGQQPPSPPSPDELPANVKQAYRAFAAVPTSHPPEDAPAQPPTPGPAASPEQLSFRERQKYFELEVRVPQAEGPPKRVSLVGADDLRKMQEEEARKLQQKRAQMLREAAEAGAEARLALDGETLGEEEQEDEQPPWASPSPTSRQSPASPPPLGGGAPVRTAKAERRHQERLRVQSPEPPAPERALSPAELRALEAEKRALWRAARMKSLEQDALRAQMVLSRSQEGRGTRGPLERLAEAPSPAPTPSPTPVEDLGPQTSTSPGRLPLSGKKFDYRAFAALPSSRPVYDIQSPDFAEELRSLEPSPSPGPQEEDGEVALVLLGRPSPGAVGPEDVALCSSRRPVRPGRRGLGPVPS

T1: Flag tagged-TSPAN6 (human) (UniProt O43657)
T1 sequence: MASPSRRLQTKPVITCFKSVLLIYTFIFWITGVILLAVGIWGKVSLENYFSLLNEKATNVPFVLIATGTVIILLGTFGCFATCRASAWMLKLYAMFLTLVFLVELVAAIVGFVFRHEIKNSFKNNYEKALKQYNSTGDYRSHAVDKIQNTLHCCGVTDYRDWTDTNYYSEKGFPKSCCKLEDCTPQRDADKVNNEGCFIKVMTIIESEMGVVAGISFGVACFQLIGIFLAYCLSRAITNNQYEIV


Columns and labels:
[1] = molecular target: T1, Flag tagged-TSPAN6 (human); assay: co-IP; PANC1 or MIA-PaCa2 cells overexpressing FLAG-TSPAN6 lysed in 1% Brij 98; IP with anti-FLAG or IgG control, immunoblot with anti-EGFR, anti-SCRIB, anti-DLG1 or anti-FLAG; conducted once
[2] = molecular target: EGFR (endogenous) (human (endogenous in PANC1 and MIA PaCa2)) (UniProt P00533); assay: co-IP; PANC1 or MIA-PaCa2 cells lysed in 1% Brij 98 (mild stringency); IP with anti-EGFR or IgG control, immunoblot with anti-TSPAN6 or anti-EGFR

binding [1] | binding [2] | Molecule
no binding |  | SCRIB (endogenous) (from UniProt Q14160 1-1655)
binds |  | EGFR (endogenous) (from UniProt P00533 25-1210) (receptor)
 | binds | TSPAN6 (endogenous) (protein, UniProt O43657 1-245) MASPSRRLQTKPVITCFKSVLLIYTFIFWITGVILLAVGIWGKVSLENYFSLLNEKATNVPFVLIATGTVIILLGTFGCFATCRASAWMLKLYAMFLTLVFLVELVAAIVGFVFRHEIKNSFKNNYEKALKQYNSTGDYRSHAVDKIQNTLHCCGVTDYRDWTDTNYYSEKGFPKSCCKLEDCTPQRDADKVNNEGCFIKVMTIIESEMGVVAGISFGVACFQLIGIFLAYCLSRAITNNQYEIV
